Test results taken from patent US20260284208A1, “SYSTEM” (Oxford University Innovation Limited, priority 2023, published 2026).
Further values from the same series stand in other lists.

System: library of 8,380 IKZF3 degrons (ZF-eGFP/mCherry reporter) in Jurkat cells
Test: Pooled library screen (FACS, NGS, limma voom LogFC of positive vs negative read counts)
Format: cell-based, human
Method: A library of 8,380 IKZF3 degrons was cloned into pLVX-Sprout to create the eGFP/mCherry protein degradation reporter plasmid pool. A lentivirus pool was then generated using the Lenti-X lentiviral vector production method.
Jurkat cells were transduced at a multiplicity of infection of <0.3 with the lentivirus vector library in order to maximise the number of cells with a single integration. Transductions were carried out in 6 well TC-treated cell culture dishes (Falcon) with 3×10^6 cells per well. Cells were incubated for 2 days at 37° C. and 5% CO2 before the supernatant was removed and replaced with fresh media. 6 days post-transduction, mCherry+ cells were isolated via FACS using the FACS Aria Fusion (BD) in a buffer containing PBS (Gibco), 2 mM EDTA (Gibco), 25 mM HEPES (Sigma) and 1% BSA (Sigma). 8 days later, cells were treated with DMSO or a thalidomide analog for 18 hours at 37° C. and 5% CO2. mCherry+GFPlow and NOT(mCherry+GFPlow) cells were sorted by FACS using the FACS Aria Fusion (BD). DMSO treated cells were used to set the mCherry+GFPlow gate and dead cells were excluded from sorting by staining cells with 1 μg/mL DAPI (ThermoFisher). gDNA was isolated using the Maxwell RSC 48 (Promega). gDNA from cells that were unsorted and untreated were also isolated to determine the library representation on the day of compound treatment. Throughout the screen >600× coverage of the library was maintained. 3 biological replicates were carried out with a new transduction taking place each time.
A two-step PCR was used where the first PCR (PCR1) amplified the integrated degron sequence from gDNA and the second PCR (PCR2) added Illumina adaptors and barcodes to permit multiplexing. See Supp F for PCR1 and PCR2 primers. Q5 Hot Start High-Fidelity 2× Master Mix (New England Biolabs) was used for both PCRs. Sufficient gDNA was amplified in PCR1 in order to maintain >600× coverage and amplicons were purified using solid phase reversible immobilization (SPRI) beads (Beckman Coulter). Purified PCR1 products were analysed on the Tapestation 4200 (Agilent) to confirm purity prior to proceeding to PCR2. Sufficient PCR1 product was amplified in PCR2 in order to maintain >600× coverage and amplicons were run on a 2% agarose TAE gel. Target bands were excised and purified using the NucleoSpin Gel and PCR Clean-up Kit (Machery Nagel). Amplicons were analysed on the Tapestation 4200 and quantified using Qubit dsDNA HS kit (ThermoFisher). PCR products were pooled and sequenced as paired-reads on the NovaSeq (Illumina) using a SP2 200 cycles kit (Illumina).
Count distributions, percentage of read mapping, library coverage and replicate correlation per sample were assessed for QC purposes.
To carry out the library screen, we used the same plasmid construct as in our earlier flow cytometry assays, but pooling all 8,380 mutants together into one Jurkat population, ensuring a copy number of one plasmid per cell (FIG. 4B). […] These GFP-negative cells were then separated from the remaining GFP-positive population using fluorescence activated cell sorting (FACS). These two populations were then sequenced and the relative abundance of every mutant in both populations compared to provide a log FC value for each mutant sequence. This value indicated how frequently a sequence is observed in the GFP-negative population relative to the GFP-positive population, and therefore how effective a degron it is for that particular IMID compound.

O=C1CCC(N2C(=O)c3ccc(N4CCOCC4)cc3C2=O)C(=O)N1 (stereo not drawn) [B03]
B03_logFC (Degron-ID 4399, SEQ ID NO 3878, 46F_47Y_49E_50I_52G_53A_54Y_55F_67L): 2.886 | B03_logFC (Degron-ID 4400, SEQ ID NO 4373, 46F_47Y_49E_50Q_52G_53A_54A_55F_67L_): 2.084 | B03_logFC (Degron-ID 4401, SEQ ID NO 4264, 46F_47Y_49E_50Q_52G_53A_54C_55F_67L_): 2.268 | B03_logFC (Degron-ID 4414, SEQ ID NO 3762, 46F_47Y_49E_50Q_52G_53A_54R_55F_67L_): 3.104 | B03_logFC (Degron-ID 4423, SEQ ID NO 3834, 46F_47Y_49E_50V_52G_53A_54E_55F_67L_): 2.951 | B03_logFC (Degron-ID 4424, SEQ ID NO 3933, 46F_47Y_49E_50V_52G_53A_54F_55F_67L): 2.783 | B03_logFC (Degron-ID 4425, SEQ ID NO 3699, 46F_47Y_49E_50V_52G_53A_54G_55F_67L_): 3.223 | B03_logFC (Degron-ID 4429, SEQ ID NO 3789, 46F_47Y_49E_50V_52G_53A_54L_55F_67L_): 3.029 | B03_logFC (Degron-ID 4439, SEQ ID NO 3889, 46F_47Y_49E_50V_52G_53A_54Y_55F_67L): 2.87 | B03_logFC (Degron-ID 4440, SEQ ID NO 3822, 46F_47Y_49N_50I_52G_53A_54A_55F_67L_): 2.967 | B03_logFC (Degron-ID 4441, SEQ ID NO 3733, 46F_47Y_49N_50I_52G_53A_54C_55F_67L_): 3.151 | B03_logFC (Degron-ID 4446, SEQ ID NO 3904, 46F_47Y_49N_50I_52G_53A_54H_55F_67L): 2.843 | B03_logFC (Degron-ID 4448, SEQ ID NO 4311, 46F_47Y_49N_50I_52G_53A_54K_55F_67L_): 2.189 | B03_logFC (Degron-ID 4451, SEQ ID NO 3872, 46F_47Y_49N_50I_52G_53A_54N_55F_67L): 2.893 | B03_logFC (Degron-ID 4453, SEQ ID NO 3738, 46F_47Y_49N_50I_52G_53A_54Q_55F_67L_): 3.148 | B03_logFC (Degron-ID 4455, SEQ ID NO 3838, 46F_47Y_49N_50I_52G_53A_54S_55F_67L_): 2.946 | B03_logFC (Degron-ID 4480, SEQ ID NO 4429, 46F_47Y_49N_50V_52G_53A_54A_55F_67L_): 2.012 | B03_logFC (Degron-ID 4500, SEQ ID NO 3690, 46F_47Y_49P_50I_52G_53A_54A_55F_67L_): 3.239 | B03_logFC (Degron-ID 4504, SEQ ID NO 3885, 46F_47Y_49P_50I_52G_53A_54F_55F_67L): 2.873 | B03_logFC (Degron-ID 4505, SEQ ID NO 4416, 46F_47Y_49P_50I_52G_53A_54G_55F_67L_): 2.023 | B03_logFC (Degron-ID 4507, SEQ ID NO 3913, 46F_47Y_49P_50I_52G_53A_54I_55F_67L): 2.825 | B03_logFC (Degron-ID 4508, SEQ ID NO 3772, 46F_47Y_49P_50I_52G_53A_54K_55F_67L_): 3.067 | B03_logFC (Degron-ID 4509, SEQ ID NO 3843, 46F_47Y_49P_50I_52G_53A_54L_55F_67L_): 2.934 | B03_logFC (Degron-ID 4512, SEQ ID NO 3680, 46F_47Y_49P_50I_52G_53A_54P_55F_67L_): 3.274 | B03_logFC (Degron-ID 4517, SEQ ID NO 3792, 46F_47Y_49P_50I_52G_53A_54V_55F_67L_): 3.027 | B03_logFC (Degron-ID 4519, SEQ ID NO 3756, 46F_47Y_49P_50I_52G_53A_54Y_55F_67L_): 3.116 | B03_logFC (Degron-ID 4521, SEQ ID NO 4344, 46F_47Y_49P_50Q_52G_53A_54C_55F_67L_): 2.136 | B03_logFC (Degron-ID 4534, SEQ ID NO 4380, 46F_47Y_49P_50Q_52G_53A_54R_55F_67L_): 2.067 | B03_logFC (Degron-ID 4535, SEQ ID NO 4338, 46F_47Y_49P_50Q_52G_53A_54S_55F_67L_): 2.146 | B03_logFC (Degron-ID 4540, SEQ ID NO 3901, 46F_47Y_49P_50V_52G_53A_54A_55F_67L): 2.85 | B03_logFC (Degron-ID 4543, SEQ ID NO 4308, 46F_47Y_49P_50V_52G_53A_54E_55F_67L_): 2.191 | B03_logFC (Degron-ID 4545, SEQ ID NO 4379, 46F_47Y_49P_50V_52G_53A_54G_55F_67L_): 2.073 | B03_logFC (Degron-ID 4548, SEQ ID NO 3914, 46F_47Y_49P_50V_52G_53A_54K_55F_67L): 2.823 | B03_logFC (Degron-ID 4549, SEQ ID NO 3890, 46F_47Y_49P_50V_52G_53A_54L_55F_67L): 2.87 | B03_logFC (Degron-ID 4552, SEQ ID NO 3691, 46F_47Y_49P_50V_52G_53A_54P_55F_67L_): 3.239 | B03_logFC (Degron-ID 4554, SEQ ID NO 3776, 46F_47Y_49P_50V_52G_53A_54R_55F_67L_): 3.052 | B03_logFC (Degron-ID 4555, SEQ ID NO 3669, 46F_47Y_49P_50V_52G_53A_54S_55F_67L_): 3.296 | B03_logFC (Degron-ID 4557, SEQ ID NO 3895, 46F_47Y_49P_50V_52G_53A_54V_55F_67L): 2.859 | B03_logFC (Degron-ID 6173, SEQ ID NO 4356, 46F_47F_49P_50I_52G_53R_54Q_55F_67L_): 2.114 | B03_logFC (Degron-ID 6352, SEQ ID NO 3871, 46F_47R_49P_50I_52G_53R_54P_55F_67L): 2.893 | B03_logFC (Degron-ID 6433, SEQ ID NO 3831, 46F_47W_49P_50I_52G_53R_54Q_55F_67L_): 2.956 | B03_logFC (Degron-ID 6460, SEQ ID NO 3836, 46L_47A_49P_50I_52G_53F_54A_55C_67L_): 2.95
